These are yes or no findings as the source states them, for the method shown. Binding calls can cover weak binding; strength is not graded here. Where a sequence is shown, tags or fusion partners need not be part of it.
Assays:
[1] = target: T1, NRT1.2^loop-GST (Arabidopsis thaliana) (UniProt Q8H157); assay: pull-down
T1 sequence: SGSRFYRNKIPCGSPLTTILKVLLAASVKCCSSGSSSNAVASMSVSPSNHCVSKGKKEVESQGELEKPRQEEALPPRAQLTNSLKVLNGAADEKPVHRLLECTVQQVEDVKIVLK

Chains of the proteins cited; added tags and fusions are not shown. Lines headed by an entry give the natural chain unless they say otherwise; changes in a name come on top.
UniProt Q9C7T7: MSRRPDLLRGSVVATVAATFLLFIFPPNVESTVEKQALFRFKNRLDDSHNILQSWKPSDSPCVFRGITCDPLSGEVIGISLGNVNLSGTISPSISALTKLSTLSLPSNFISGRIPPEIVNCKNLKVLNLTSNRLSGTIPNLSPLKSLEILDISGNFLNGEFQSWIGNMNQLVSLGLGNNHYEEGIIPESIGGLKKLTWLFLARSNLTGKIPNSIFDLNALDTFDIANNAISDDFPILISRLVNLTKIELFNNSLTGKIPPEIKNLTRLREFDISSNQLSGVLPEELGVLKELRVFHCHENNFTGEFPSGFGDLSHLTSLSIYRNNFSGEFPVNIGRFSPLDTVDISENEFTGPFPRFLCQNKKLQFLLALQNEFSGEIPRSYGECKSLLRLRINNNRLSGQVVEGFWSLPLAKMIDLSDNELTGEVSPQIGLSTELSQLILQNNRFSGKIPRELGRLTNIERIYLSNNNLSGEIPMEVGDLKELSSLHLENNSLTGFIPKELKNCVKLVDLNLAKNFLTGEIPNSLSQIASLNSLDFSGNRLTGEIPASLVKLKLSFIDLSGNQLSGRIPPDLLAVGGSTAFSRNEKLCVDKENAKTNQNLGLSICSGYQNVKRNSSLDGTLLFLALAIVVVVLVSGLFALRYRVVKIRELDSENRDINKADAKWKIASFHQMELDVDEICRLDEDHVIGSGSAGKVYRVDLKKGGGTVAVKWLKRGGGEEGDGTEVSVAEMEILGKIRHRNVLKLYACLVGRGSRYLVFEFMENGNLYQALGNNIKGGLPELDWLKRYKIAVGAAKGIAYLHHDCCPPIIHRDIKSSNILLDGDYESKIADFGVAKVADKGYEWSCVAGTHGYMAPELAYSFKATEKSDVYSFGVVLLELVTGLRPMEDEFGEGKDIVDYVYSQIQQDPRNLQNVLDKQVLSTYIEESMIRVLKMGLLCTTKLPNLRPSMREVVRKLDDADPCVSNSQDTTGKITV
UniProt Q9FK29: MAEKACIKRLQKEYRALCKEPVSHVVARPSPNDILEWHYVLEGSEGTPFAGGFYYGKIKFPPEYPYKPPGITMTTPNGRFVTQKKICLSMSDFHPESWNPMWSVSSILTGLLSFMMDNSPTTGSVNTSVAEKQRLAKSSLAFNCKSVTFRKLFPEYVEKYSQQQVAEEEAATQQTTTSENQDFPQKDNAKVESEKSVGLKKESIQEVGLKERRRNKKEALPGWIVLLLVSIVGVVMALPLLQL
UniProt Q9SHI7: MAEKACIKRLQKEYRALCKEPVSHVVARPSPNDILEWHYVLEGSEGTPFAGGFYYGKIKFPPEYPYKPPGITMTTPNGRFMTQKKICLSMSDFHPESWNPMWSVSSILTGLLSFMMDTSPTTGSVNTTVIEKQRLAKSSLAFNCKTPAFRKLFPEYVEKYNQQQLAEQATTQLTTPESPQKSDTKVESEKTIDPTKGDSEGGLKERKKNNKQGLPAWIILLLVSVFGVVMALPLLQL

[2] = target: CEPR2 kinase domain (CEPR2^KD), MbSUS fusion (Arabidopsis thaliana) (UniProt Q9C7T7); assay: two-hybrid

For “UBC32ΔTM-His (from UniProt Q9LSP7) (enzyme)”, the binding [1] was “binds”.

For “UBC33ΔTM-His (from UniProt Q9FK29) (enzyme)”, the binding [1] was “binds”.

“UBC34ΔTM-His (from UniProt Q9SHI7) (enzyme)” was tested, and the binding [1] was “binds”.

B1: NRT1.2 cytosol loop region (NRT1.2^loop, 232-346 aa), MbSUS fusion (domain or fragment, UniProt Q8H157 232-346)
chain: T1 sequence
In the case of B1, the binding [2] is reported as “binds”.
